Data as given in patent US20090142323A1, “METHODS FOR TREATING A DISORDER BY REGULATING GPRC6A” (priority 2007, published 2009).
At least one structure is not confirmed: it was looked up by name or label, or the drawing left a doubt.

Target: T1, GPRC6A (Mus musculus, UniProt Q8K4Z6)
T1 sequence (Q8K4Z6 21-928): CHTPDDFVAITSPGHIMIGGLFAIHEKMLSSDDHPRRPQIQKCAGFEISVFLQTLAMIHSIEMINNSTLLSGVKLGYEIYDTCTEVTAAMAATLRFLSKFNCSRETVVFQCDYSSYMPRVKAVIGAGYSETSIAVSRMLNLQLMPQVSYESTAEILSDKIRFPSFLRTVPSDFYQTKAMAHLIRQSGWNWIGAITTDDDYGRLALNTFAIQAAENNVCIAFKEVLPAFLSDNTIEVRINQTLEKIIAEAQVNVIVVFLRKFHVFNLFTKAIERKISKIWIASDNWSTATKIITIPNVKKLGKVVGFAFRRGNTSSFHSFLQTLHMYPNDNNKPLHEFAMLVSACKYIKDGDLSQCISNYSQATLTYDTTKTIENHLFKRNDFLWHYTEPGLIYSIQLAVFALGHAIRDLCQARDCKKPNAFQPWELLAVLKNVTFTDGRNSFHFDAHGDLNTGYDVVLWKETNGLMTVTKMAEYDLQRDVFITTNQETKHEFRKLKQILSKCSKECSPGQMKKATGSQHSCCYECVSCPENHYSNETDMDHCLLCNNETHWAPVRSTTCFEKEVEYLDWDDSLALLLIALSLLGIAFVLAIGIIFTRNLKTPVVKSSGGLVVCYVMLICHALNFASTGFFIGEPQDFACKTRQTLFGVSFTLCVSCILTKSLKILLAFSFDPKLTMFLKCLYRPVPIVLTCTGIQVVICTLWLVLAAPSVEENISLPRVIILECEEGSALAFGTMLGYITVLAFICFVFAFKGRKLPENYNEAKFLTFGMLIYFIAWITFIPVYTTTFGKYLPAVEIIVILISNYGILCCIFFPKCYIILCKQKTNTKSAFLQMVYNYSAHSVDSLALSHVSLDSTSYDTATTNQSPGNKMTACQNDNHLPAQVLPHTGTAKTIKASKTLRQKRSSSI
Test: phospho-ERK activation in HEK-293 cells transfected with GPRC6A (immunoblot)
Assay type: cell-based
Design: expressed in transfected cells; host or cells: HEK-293
Description: Equal amounts of lysates were subjected to 10% SDS-PAGE, and phospho-ERK1/2 levels were determined by immunoblotting using antiphospho-ERK1/2 mitogen-activated protein kinase antibody (Cell Signaling Technology). […] An anti-peptide antibody was raised in a rabbit against a peptide ([…] (SEQ ID NO: 27)) corresponding to a sequence in the extracellular domain of mouse GPRC6A (in exon 1 of mouse GPRC6A gene) produced by Abgent (San Diego, Calif.). For phospho-ERK, the phospho-ERK1/2 levels were determined by immunoblotting using anti-phospho-ERK1/2 mitogen-activated protein kinase antibody (Cell Signaling Technology). Urinary β2-microglobulin was detected by rabbit polyclonal anti-β2-microglobulin antibody (Abcam Inc.). For aromatase expression analysis, the rabbit polyclonal anti-aromatase antibody (Abcam Inc.) and goat anti-rabbit IgG HRP secondary antibody (Santa Cruz Biotechnology Inc.) were used. Mouse anti-Actin antibody (Santa Cruz Biotechnology Inc.) was used for control protein loading.

Compound | inhibition of testosterone stimulated GPRC6A-mediated activation of phospho-ERK (10 μM PD89059, 50 μM Ly294002, 2 μM U73122, 10 μM PP-1) | block of GPRC6A-mediated extracellular testosterone stimulated signaling (either phospho-ERK or SRE-luciferase as read-outs) | GPRC6A-mediated activation of phospho-ERK (HEK-293 cells transfected with GPRC6A)
O=c1cc(N2CCOCC2)oc2c(-c3ccccc3)cccc12 [Ly294002] | inhibited | blocked | 
C[C@@H]1C[C@H]2[C@@H]3CCC4=CC(=O)C=C[C@]4(C)[C@@]3(F)[C@@H](O)C[C@]2(C)[C@@]1(O)C(=O)CO [dexamethasone] |  |  | stimulated the GPRC6A-mediated activation of phospho-ERK
